# Data: article PMC8472790, “Dual Emissive Ir(III) Complexes for Photodynamic Therapy and Bioimaging” (Pharmaceutics, 2021)
# System: A549 cells
# Experiment: Fluorescence confocal microscopy colocalization with MitoTracker Red
# Type: cell-based, Human
# Conditions: 2 µM complex, MTR 15 nM
smiles,measurement,value
[Cl-].c1ccc(N(c2ccccn2)c2c3ccccc3cc3ccccc23)nc1.c1cnc2c(c1)ccc1ccc[c]([Ir+][c]3cccc4ccc5cccnc5c34)c12 [Complex 3],Subcellular localization (colocalization with MTR),fully colocalizes with the signal emitted by MTR
